{"source": "PubChem BioAssay AID1224830 (NIAID, 2016)", "screen": "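Genes whose knock-down alters the TNF-alpha reporter response to LPS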 (primary screen)", "cells": "human THP-1 monocytic leukaemia cells, TNF dual-luciferase reporter clone, PMA-differentiated to macrophage-like cells", "reagents": "siRNA pool against human genes, 50 nM", "duration": "LPS for 4 h, given about 3 days after siRNA transfection", "treatment": "bacterial LPS (TLR4 ligand), 10 ng/ml", "read-out": "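Ratio of firefly to renilla light, scaled to the plate median and expressed as a robust z-score per replicate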", "reading the numbers": "TNF reporter robust z-score: higher = stronger TNF reporter response to LPS", "call rule": "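a well is active when its z-score exceeds 2.8 or falls below -1.5; control wells carry no call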", "note": "Here is a random part of about 18,000 reagents. Over the whole deposit, about 2,900 (16%) are marked active. 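Calls are made per well; low scores hint the gene aids the LPS response, high scores that it dampens it.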 Repeated entries: four replicate wells of each siRNA pool."}
{"target gene": "SLC1A1", "PubChem SID": "SID315451445", "TNF reporter robust z-score": 1.28, "Outcome": "inactive"}
{"target gene": "SLC1A1", "PubChem SID": "SID315451445", "TNF reporter robust z-score": 1.8, "Outcome": "inactive"}
{"target gene": "SLC1A1", "PubChem SID": "SID315451445", "TNF reporter robust z-score": 1.03, "Outcome": "inactive"}
{"target gene": "SLC1A1", "PubChem SID": "SID315451445", "TNF reporter robust z-score": 1.98, "Outcome": "inactive"}
{"target gene": "EHD1", "PubChem SID": "SID315454470", "TNF reporter robust z-score": -0.52, "Outcome": "inactive"}
{"target gene": "EHD1", "PubChem SID": "SID315454470", "TNF reporter robust z-score": -0.28, "Outcome": "inactive"}
{"target gene": "EHD1", "PubChem SID": "SID315454470", "TNF reporter robust z-score": -0.79, "Outcome": "inactive"}
{"target gene": "NCAPG", "PubChem SID": "SID315458852", "TNF reporter robust z-score": 1.78, "Outcome": "inactive"}
{"target gene": "NCAPG", "PubChem SID": "SID315458852", "TNF reporter robust z-score": -0.51, "Outcome": "inactive"}
{"target gene": "NCAPG", "PubChem SID": "SID315458852", "TNF reporter robust z-score": 0.4, "Outcome": "inactive"}
{"target gene": "NCAPG", "PubChem SID": "SID315458852", "TNF reporter robust z-score": 2.37, "Outcome": "inactive"}
{"target gene": "MAP3K8", "PubChem SID": "SID315448045", "TNF reporter robust z-score": -1.43, "Outcome": "inactive"}
{"target gene": "MAP3K8", "PubChem SID": "SID315448045", "TNF reporter robust z-score": -0.53, "Outcome": "inactive"}
{"target gene": "MAP3K8", "PubChem SID": "SID315448045", "TNF reporter robust z-score": -0.99, "Outcome": "inactive"}
{"target gene": "MAP3K8", "PubChem SID": "SID315448045", "TNF reporter robust z-score": -0.96, "Outcome": "inactive"}
{"target gene": "BNIP1", "PubChem SID": "SID315447572", "TNF reporter robust z-score": 1.21, "Outcome": "inactive"}
{"target gene": "BNIP1", "PubChem SID": "SID315447572", "TNF reporter robust z-score": 1.64, "Outcome": "inactive"}
{"target gene": "BNIP1", "PubChem SID": "SID315447572", "TNF reporter robust z-score": 1.11, "Outcome": "inactive"}
{"target gene": "BNIP1", "PubChem SID": "SID315447572", "TNF reporter robust z-score": 2.13, "Outcome": "inactive"}
{"target gene": "CCDC17", "PubChem SID": "SID315462418", "TNF reporter robust z-score": 0.8, "Outcome": "inactive"}
{"target gene": "CCDC17", "PubChem SID": "SID315462418", "TNF reporter robust z-score": 0.74, "Outcome": "inactive"}
{"target gene": "CCDC17", "PubChem SID": "SID315462418", "TNF reporter robust z-score": 0.81, "Outcome": "inactive"}
{"target gene": "CCDC17", "PubChem SID": "SID315462418", "TNF reporter robust z-score": -0.97, "Outcome": "inactive"}
{"target gene": "APOM", "PubChem SID": "SID315457957", "TNF reporter robust z-score": -0.72, "Outcome": "inactive"}
{"target gene": "APOM", "PubChem SID": "SID315457957", "TNF reporter robust z-score": -0.47, "Outcome": "inactive"}
{"target gene": "APOM", "PubChem SID": "SID315457957", "TNF reporter robust z-score": -1.26, "Outcome": "inactive"}
{"target gene": "APOM", "PubChem SID": "SID315457957", "TNF reporter robust z-score": -0.75, "Outcome": "inactive"}
{"target gene": "FERMT3", "PubChem SID": "SID315460065", "TNF reporter robust z-score": -0.04, "Outcome": "inactive"}
{"target gene": "FERMT3", "PubChem SID": "SID315460065", "TNF reporter robust z-score": -0.25, "Outcome": "inactive"}
{"target gene": "FERMT3", "PubChem SID": "SID315460065", "TNF reporter robust z-score": -0.47, "Outcome": "inactive"}
{"target gene": "FERMT3", "PubChem SID": "SID315460065", "TNF reporter robust z-score": -0.76, "Outcome": "inactive"}
{"target gene": "RYR2", "PubChem SID": "SID315451265", "TNF reporter robust z-score": -0.12, "Outcome": "inactive"}
{"target gene": "RYR2", "PubChem SID": "SID315451265", "TNF reporter robust z-score": -0.68, "Outcome": "inactive"}
{"target gene": "RYR2", "PubChem SID": "SID315451265", "TNF reporter robust z-score": -0.4, "Outcome": "inactive"}
{"target gene": "RYR2", "PubChem SID": "SID315451265", "TNF reporter robust z-score": 0.3, "Outcome": "inactive"}
{"target gene": "HLCS", "PubChem SID": "SID315449223", "TNF reporter robust z-score": -0.98, "Outcome": "inactive"}
{"target gene": "HLCS", "PubChem SID": "SID315449223", "TNF reporter robust z-score": -0.24, "Outcome": "inactive"}
{"target gene": "HLCS", "PubChem SID": "SID315449223", "TNF reporter robust z-score": -0.61, "Outcome": "inactive"}
{"target gene": "HLCS", "PubChem SID": "SID315449223", "TNF reporter robust z-score": -0.28, "Outcome": "inactive"}
{"target gene": "DIABLO", "PubChem SID": "SID315458090", "TNF reporter robust z-score": -0.66, "Outcome": "inactive"}
{"target gene": "DIABLO", "PubChem SID": "SID315458090", "TNF reporter robust z-score": 0.06, "Outcome": "inactive"}
{"target gene": "DIABLO", "PubChem SID": "SID315458090", "TNF reporter robust z-score": -1.27, "Outcome": "inactive"}
{"target gene": "DIABLO", "PubChem SID": "SID315458090", "TNF reporter robust z-score": -0.81, "Outcome": "inactive"}
{"target gene": "NTPCR", "PubChem SID": "SID315460296", "TNF reporter robust z-score": -0.65, "Outcome": "inactive"}
{"target gene": "NTPCR", "PubChem SID": "SID315460296", "TNF reporter robust z-score": -0.7, "Outcome": "inactive"}
{"target gene": "NTPCR", "PubChem SID": "SID315460296", "TNF reporter robust z-score": -0.45, "Outcome": "inactive"}
{"target gene": "NTPCR", "PubChem SID": "SID315460296", "TNF reporter robust z-score": -1.14, "Outcome": "inactive"}

Reprinted from the listing (4 entries):
{"target gene": "CCDC17", "PubChem SID": "SID315462418", "TNF reporter robust z-score": 0.8, "Outcome": "inactive"}
{"target gene": "CCDC17", "PubChem SID": "SID315462418", "TNF reporter robust z-score": 0.74, "Outcome": "inactive"}
{"target gene": "CCDC17", "PubChem SID": "SID315462418", "TNF reporter robust z-score": 0.81, "Outcome": "inactive"}
{"target gene": "CCDC17", "PubChem SID": "SID315462418", "TNF reporter robust z-score": -0.97, "Outcome": "inactive"}
